Data published in patent US20050272633A1.

Amino acid sequences for entries named in this document (tags omitted). A change or cut given only in a name is not applied to a line headed by its entry.
UniProt P31785: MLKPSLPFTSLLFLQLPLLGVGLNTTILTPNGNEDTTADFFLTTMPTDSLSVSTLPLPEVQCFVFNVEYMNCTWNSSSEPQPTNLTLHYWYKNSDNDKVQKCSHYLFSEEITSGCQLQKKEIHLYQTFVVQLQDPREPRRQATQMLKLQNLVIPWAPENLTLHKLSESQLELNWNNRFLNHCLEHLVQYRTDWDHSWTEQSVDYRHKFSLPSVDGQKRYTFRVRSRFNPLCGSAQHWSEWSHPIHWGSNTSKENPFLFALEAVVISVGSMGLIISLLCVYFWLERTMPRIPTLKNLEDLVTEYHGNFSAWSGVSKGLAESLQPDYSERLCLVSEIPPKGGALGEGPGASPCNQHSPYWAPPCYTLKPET
UniProt Q99558: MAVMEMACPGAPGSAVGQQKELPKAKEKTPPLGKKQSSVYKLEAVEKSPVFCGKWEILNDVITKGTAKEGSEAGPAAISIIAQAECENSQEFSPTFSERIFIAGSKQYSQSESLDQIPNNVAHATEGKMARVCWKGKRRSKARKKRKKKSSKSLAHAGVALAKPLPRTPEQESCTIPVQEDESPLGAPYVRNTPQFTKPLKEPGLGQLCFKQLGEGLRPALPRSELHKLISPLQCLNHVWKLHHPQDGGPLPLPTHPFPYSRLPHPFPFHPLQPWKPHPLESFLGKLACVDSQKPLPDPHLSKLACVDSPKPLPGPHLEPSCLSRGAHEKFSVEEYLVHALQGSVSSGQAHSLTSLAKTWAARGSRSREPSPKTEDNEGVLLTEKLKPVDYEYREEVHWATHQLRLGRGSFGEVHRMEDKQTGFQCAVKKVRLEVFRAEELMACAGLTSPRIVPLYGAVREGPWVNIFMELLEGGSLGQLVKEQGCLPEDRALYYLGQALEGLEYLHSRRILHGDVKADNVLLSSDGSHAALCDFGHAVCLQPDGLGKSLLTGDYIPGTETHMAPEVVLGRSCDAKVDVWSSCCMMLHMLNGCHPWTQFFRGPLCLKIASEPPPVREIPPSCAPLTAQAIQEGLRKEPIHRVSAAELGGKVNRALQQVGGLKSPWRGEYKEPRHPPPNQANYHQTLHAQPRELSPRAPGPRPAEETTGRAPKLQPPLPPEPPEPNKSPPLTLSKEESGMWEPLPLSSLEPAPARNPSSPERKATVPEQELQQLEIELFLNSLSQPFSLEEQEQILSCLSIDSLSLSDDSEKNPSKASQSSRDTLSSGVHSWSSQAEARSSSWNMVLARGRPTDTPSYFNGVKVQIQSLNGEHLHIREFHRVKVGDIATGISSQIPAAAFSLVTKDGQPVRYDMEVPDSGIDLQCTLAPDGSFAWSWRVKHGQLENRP

Legend:
[1] = target: IL-2 receptor common gamma chain (cγc), full length (1-369) (human) (UniProt P31785); test: co-immunoprecipitation of endogenous proteins with anti cγc from PBMC, Western blot
[2] = target: IL-2 receptor common gamma chain (cγc), full length (1-369) (human) (UniProt P31785); test: co-immunoprecipitation with anti cγc from PBMC, Western blot
[3] = target: IL-2 receptor common gamma chain (cγc), full length (1-369) (human) (UniProt P31785); test: yeast two-hybrid, NIK as bait, cγc as prey, beta-gal assay
[4] = target: IL-2 receptor common gamma chain (cγc), full length (1-369) (human) (UniProt P31785); test: co-immunoprecipitation of endogenous proteins with anti cγc from PBMC
[5] = target: IL-2 receptor common gamma chain (cγc), full length (1-369) (human) (UniProt P31785); test: co-immunoprecipitation with anti myc from 293-T lysate, Western blot with anti cγc
[6] = target: IL-2 receptor common gamma chain (cγc), full length (1-369) (human) (UniProt P31785); test: co-immunoprecipitation from 293-T lysates
[7] = target: IL-2 receptor common gamma chain (cγc), full length (1-369) (human) (UniProt P31785); test: co-immunoprecipitation with anti cγc from 293T cells, Western blot with anti His

binding [1]: binds | binding [2]: binds | binding [3]: binds | binding [4]: binds
Substance: NF-κB-inducing kinase, NIK (MAP3K14), full length (from UniProt Q99558 1-947) (enzyme)

binding [5]: binds | binding [6]: binds
Substance: myc tagged NIK (pcS3MTNIK) (from UniProt Q99558 1-947) (enzyme)

binding [7]: binds
Substance: NIK 1-947 (full length), His tagged (from UniProt Q99558 1-947) (enzyme)

No constants are given. Whether binding was seen depends on the method and setting. A result given as binding can be weak or reduced; the word gives no strength. For some of these results: In cells and extracts the contact can be indirect. One block for each substance: values may come before it.
